Source: the supplement of paper PMC12823440, “Inhibitors supercharge kinase turnover through native proteolytic circuits” (Nature, 2025)
Structures can show the parent of a compound that is named as a salt. This is one part of the list. The calls rarely recur for the same compound in another form.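 Kinases were expressed as nanoluciferase fusions in K562 cells and luminescence was read every 4 h between 2 and 18 h as percent of control, DMSO set to 100% and a positive control to 0%. A time point counts as decreased when the signal drops significantly (2 sigma). The hit call is the authors' own, does not follow from the count of time points alone, and its rule is not shown.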

The chains behind the UniProt entries cited, without tags or fusion partners. Where a name states a change or a piece, a line headed by the entry shows the natural chain unless it says otherwise.
UniProt P00519, whole entry: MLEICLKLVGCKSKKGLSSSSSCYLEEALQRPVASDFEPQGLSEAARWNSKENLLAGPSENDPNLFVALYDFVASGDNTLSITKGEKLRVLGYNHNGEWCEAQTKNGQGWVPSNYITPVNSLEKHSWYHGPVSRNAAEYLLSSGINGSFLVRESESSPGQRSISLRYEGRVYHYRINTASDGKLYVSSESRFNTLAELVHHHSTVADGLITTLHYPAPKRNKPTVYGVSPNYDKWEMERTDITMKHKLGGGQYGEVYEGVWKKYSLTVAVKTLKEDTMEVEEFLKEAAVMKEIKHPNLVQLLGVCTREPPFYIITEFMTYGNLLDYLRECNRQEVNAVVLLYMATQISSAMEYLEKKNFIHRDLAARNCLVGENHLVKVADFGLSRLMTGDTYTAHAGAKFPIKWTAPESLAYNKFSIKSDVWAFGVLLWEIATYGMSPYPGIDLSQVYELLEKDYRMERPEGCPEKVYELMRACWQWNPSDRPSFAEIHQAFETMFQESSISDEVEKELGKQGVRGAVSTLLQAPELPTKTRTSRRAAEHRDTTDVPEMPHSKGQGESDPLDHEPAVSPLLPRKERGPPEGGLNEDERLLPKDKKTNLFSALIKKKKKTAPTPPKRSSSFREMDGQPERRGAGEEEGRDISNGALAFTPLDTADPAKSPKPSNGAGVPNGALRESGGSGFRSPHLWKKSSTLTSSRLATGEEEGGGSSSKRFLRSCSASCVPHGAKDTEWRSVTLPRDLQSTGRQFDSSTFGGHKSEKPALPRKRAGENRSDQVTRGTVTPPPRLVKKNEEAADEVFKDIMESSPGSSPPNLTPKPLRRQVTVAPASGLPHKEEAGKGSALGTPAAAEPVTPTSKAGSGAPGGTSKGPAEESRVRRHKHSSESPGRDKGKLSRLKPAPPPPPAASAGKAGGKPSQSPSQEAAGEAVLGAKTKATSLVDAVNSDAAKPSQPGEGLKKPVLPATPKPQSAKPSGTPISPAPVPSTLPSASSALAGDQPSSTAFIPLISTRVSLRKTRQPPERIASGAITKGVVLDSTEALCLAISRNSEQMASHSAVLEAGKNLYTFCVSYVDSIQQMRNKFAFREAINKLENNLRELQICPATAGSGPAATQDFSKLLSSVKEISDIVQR
UniProt P31749: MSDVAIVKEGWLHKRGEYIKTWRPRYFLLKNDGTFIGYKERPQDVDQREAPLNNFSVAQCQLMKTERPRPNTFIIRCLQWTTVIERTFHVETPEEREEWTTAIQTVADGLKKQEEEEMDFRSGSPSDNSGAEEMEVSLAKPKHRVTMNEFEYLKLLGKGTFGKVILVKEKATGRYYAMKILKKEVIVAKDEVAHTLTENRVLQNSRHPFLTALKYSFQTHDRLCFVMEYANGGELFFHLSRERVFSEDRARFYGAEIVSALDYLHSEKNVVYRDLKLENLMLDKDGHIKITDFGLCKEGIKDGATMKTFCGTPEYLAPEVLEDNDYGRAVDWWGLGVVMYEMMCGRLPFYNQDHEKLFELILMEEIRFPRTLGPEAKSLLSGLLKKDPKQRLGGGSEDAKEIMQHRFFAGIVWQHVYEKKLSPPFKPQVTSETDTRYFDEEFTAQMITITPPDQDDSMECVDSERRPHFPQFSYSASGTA
UniProt Q9UM73: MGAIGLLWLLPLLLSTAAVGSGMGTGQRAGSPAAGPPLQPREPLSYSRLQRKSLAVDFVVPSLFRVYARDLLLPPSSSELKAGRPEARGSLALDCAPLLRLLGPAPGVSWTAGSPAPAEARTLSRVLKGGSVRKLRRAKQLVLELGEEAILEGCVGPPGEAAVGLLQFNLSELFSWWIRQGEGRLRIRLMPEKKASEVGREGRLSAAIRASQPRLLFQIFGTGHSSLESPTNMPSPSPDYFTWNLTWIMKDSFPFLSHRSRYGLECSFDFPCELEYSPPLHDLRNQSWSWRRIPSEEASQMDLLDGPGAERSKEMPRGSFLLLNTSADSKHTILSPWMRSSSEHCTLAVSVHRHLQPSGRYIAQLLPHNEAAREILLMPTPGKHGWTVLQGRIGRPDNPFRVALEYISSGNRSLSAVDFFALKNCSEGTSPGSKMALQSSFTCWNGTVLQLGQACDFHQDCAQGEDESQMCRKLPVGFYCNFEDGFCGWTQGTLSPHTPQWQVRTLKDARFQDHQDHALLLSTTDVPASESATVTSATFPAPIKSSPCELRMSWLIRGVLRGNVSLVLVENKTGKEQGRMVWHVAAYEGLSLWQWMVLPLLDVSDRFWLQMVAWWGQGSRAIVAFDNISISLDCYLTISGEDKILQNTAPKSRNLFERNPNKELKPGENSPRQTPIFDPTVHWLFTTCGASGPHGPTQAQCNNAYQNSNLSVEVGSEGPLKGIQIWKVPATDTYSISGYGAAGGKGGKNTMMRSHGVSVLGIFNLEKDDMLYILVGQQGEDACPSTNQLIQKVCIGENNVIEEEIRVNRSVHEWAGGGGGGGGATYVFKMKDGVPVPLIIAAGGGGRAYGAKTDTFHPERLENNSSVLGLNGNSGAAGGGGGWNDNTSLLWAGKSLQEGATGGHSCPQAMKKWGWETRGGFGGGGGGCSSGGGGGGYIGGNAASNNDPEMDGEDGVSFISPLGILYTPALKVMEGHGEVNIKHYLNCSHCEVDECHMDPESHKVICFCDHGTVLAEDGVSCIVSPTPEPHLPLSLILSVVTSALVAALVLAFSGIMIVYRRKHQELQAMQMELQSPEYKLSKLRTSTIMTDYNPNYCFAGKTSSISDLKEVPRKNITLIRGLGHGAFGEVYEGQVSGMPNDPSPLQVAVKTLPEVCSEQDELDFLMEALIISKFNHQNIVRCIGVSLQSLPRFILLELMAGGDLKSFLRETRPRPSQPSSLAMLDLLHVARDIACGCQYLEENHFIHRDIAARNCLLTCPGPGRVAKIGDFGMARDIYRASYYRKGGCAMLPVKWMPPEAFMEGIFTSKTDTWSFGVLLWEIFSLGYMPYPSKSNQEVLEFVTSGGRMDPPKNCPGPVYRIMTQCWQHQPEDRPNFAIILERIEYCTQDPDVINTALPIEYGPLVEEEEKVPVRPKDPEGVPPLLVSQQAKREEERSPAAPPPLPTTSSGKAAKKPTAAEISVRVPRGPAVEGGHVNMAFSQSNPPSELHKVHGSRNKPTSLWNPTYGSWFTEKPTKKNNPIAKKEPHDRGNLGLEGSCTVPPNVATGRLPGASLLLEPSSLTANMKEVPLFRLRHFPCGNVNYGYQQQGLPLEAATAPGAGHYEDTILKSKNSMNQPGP
UniProt Q96GD4, whole entry: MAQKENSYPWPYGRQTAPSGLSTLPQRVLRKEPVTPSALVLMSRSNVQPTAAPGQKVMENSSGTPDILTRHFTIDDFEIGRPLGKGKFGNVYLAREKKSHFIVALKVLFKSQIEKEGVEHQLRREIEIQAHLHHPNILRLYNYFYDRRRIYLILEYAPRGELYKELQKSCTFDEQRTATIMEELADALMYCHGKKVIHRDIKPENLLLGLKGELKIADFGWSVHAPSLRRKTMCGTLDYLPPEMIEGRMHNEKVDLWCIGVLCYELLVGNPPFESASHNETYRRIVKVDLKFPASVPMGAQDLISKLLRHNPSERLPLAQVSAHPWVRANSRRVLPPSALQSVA
UniProt Q9UQB9: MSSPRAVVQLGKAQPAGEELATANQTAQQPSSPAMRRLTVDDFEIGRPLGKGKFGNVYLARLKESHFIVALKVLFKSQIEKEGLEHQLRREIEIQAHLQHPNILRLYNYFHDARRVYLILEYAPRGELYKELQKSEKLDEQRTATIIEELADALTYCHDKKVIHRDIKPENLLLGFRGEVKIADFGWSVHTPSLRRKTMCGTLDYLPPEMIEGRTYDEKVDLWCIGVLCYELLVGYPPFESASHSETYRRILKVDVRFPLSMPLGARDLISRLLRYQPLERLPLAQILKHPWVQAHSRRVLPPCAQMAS
UniProt P51451: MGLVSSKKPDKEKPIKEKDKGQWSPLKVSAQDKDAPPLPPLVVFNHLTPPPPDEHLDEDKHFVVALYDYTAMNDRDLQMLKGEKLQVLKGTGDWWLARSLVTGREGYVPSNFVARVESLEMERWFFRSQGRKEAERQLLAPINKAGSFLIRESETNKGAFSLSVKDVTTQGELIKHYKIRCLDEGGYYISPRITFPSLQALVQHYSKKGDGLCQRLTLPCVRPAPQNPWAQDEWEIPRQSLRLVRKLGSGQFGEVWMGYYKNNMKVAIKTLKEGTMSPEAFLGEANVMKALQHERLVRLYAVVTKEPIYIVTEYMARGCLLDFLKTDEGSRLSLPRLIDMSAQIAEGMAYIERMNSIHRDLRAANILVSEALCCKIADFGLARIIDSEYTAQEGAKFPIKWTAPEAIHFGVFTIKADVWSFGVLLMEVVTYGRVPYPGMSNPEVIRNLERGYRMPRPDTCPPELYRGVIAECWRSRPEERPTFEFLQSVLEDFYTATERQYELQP
UniProt Q06187: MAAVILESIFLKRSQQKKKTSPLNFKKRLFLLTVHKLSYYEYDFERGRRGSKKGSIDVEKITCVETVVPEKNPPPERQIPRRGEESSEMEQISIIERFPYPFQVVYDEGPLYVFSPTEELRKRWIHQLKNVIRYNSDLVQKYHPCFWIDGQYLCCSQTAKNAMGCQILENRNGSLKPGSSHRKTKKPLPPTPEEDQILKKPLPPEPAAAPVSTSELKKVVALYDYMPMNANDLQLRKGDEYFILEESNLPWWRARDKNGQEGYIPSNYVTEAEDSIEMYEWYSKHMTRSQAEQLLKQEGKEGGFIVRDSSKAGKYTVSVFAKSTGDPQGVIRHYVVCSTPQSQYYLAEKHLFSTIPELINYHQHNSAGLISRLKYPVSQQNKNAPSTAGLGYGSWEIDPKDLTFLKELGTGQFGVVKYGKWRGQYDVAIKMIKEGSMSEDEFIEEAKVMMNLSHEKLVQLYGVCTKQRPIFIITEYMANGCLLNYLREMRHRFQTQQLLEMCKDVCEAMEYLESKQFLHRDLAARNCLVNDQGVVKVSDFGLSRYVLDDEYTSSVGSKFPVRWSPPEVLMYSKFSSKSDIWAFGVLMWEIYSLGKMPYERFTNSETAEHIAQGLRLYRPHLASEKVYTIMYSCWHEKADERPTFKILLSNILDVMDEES
UniProt Q9UQM7, whole entry: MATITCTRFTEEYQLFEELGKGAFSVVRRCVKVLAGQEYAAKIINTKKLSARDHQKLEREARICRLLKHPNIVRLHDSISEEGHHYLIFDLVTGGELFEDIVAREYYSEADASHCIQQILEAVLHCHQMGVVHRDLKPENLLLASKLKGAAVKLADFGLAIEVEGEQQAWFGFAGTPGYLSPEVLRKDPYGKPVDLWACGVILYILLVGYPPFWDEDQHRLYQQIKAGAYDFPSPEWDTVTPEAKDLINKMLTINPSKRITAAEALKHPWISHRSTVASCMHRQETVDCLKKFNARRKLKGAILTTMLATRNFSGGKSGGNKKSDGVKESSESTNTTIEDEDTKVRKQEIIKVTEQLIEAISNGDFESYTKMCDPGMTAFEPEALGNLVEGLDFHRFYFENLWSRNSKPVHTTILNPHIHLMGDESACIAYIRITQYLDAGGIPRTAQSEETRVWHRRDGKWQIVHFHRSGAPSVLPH
UniProt Q15131: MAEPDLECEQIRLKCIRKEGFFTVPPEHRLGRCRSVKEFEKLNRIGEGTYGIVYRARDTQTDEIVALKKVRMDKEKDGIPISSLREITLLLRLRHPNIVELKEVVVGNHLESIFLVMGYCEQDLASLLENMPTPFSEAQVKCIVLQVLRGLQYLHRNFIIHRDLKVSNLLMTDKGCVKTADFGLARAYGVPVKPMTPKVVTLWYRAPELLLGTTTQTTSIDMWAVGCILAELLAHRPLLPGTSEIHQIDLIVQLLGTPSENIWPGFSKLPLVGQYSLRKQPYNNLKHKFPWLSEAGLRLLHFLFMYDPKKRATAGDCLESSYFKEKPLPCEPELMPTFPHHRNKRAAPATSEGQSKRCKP
UniProt Q00535, whole entry, looked up: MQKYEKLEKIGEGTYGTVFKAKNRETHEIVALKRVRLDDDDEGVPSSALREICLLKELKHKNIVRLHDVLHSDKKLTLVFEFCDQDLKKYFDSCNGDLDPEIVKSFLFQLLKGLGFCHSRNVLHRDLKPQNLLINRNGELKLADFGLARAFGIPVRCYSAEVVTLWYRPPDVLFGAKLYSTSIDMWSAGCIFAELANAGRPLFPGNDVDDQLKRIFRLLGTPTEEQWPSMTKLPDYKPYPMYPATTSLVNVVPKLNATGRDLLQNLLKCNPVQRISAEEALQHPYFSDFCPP
UniProt Q00534, whole entry: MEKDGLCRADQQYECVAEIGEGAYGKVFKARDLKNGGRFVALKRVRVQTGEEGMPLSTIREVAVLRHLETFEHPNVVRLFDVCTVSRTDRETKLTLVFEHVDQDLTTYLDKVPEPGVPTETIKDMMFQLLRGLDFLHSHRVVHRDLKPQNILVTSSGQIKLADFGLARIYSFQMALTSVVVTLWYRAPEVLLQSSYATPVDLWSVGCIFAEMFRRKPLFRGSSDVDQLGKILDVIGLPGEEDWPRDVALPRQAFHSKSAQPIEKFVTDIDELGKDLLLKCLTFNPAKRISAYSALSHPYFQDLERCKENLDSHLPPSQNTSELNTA

How the values were obtained:
Assay in all cases: kinase-Nluc reporter destabilization hit call (1 = scored as downregulated) (binary); higher = compound decreases kinase abundance
Conditions in all cases: K562; 2-18 h
ABL1 = ABL1 (UniProt P00519)
AKT1 = AKT1 (UniProt P31749)
ALK = ALK (UniProt Q9UM73)
ARAF = ARAF (UniProt P10398)
AURKA = AURKA (UniProt O14965)
AURKB = AURKB (UniProt Q96GD4)
AURKC = AURKC (UniProt Q9UQB9)
BLK = BLK (UniProt P51451)
BMX = BMX (UniProt P51813)
BRAF = BRAF (UniProt P15056)
BTK = BTK (UniProt Q06187)
CAMK2A = CAMK2A (UniProt Q9UQM7)
CAMK2G = CAMK2G (UniProt Q13555)
CDK10 = CDK10 (UniProt Q15131)
CDK2 = CDK2 (UniProt P24941)
CDK3 = CDK3 (UniProt Q00526)
CDK4 = CDK4 (UniProt P11802)
CDK5 = CDK5 (UniProt Q00535)
CDK6 = CDK6 (UniProt Q00534)
BRAF_V600E = tested on: BRAF_V600E

Measured: kinase-Nluc reporter destabilization hit call

NC(=O)c1ccc2nc(-c3ccc(Oc4ccc(Cl)cc4)cc3)[nH]c2c1 (10 µM)
inactive: ABL1 = 0 | AKT1 = 0 | ALK 0 | ARAF 0 | AURKA 0 | AURKB 0 | AURKC 0 | BLK 0 | BMX 0 | BRAF 0 | BTK 0 | CAMK2A 0 | CAMK2G 0 | CDK10 = 0 | CDK2 = 0 | CDK3 = 0 | CDK4 = 0 | CDK5 = 0 | CDK6 = 0

Cc1cc(C)c(/C=C2\C(=O)Nc3ccccc32)[nH]1 [Semaxinib] (10 µM)
inactive: ABL1 = 0 | AKT1 = 0 | ALK 0 | ARAF 0 | AURKA 0 | AURKB 0 | AURKC 0 | BLK 0 | BMX 0 | BRAF 0 | CAMK2A 0 | CAMK2G 0 | CDK10 = 0 | CDK2 = 0 | CDK3 = 0 | CDK4 = 0 | CDK5 = 0 | CDK6 = 0

NC(=O)c1ccc(-c2nc(-c3ccccn3)c(-c3ccc4c(c3)OCO4)[nH]2)cc1 (10 µM)
inactive: ABL1 = 0 | AKT1 = 0 | ALK 0 | ARAF 0 | AURKA 0 | AURKB 0 | AURKC 0 | BLK 0 | BMX 0 | BRAF_V600E 0 | BTK 0 | CAMK2A 0 | CAMK2G 0 | CDK10 = 0 | CDK3 = 0 | CDK4 = 0 | CDK5 = 0 | CDK6 = 0

COCc1c(-c2ccc(NC(=O)Nc3cc(C(F)(F)F)ccc3F)c(F)c2)c2c(N)ncnn2c1CN1CCOCC1 (2.5 µM)
inactive: ABL1 = 0 | AKT1 = 0 | ALK 0 | ARAF 0 | AURKA 0 | AURKB 0 | AURKC 0 | BLK 0 | BMX 0 | BRAF_V600E 0 | BTK 0 | CAMK2A 0 | CAMK2G 0 | CDK10 = 0 | CDK2 = 0 | CDK3 = 0 | CDK4 = 0 | CDK5 = 0 | CDK6 = 0

CCOc1ccn(-c2ccc(F)cc2)c(=O)c1C(=O)Nc1ccc(Oc2ccnc(N)c2Cl)c(F)c1 (10 µM)
inactive: ABL1 = 0 | AKT1 = 0 | ALK 0 | ARAF 0 | AURKA 0 | AURKB 0 | AURKC 0 | BLK 0 | BMX 0 | BRAF_V600E 0 | CAMK2A 0 | CAMK2G 0 | CDK10 = 0 | CDK2 = 0 | CDK3 = 0 | CDK4 = 0 | CDK5 = 0 | CDK6 = 0

Cc1ccc2c(Nc3ccc(Cl)cc3)nccc2c1Nc1ncccc1-c1ncnc2nc[nH]c12 [Raf inhibitor 1] (2.5 µM)
inactive: ABL1 = 0 | AKT1 = 0 | ALK 0 | ARAF 0 | AURKA 0 | AURKB 0 | AURKC 0 | BLK 0 | BMX 0 | BRAF_V600E 0 | BTK 0 | CAMK2A 0 | CAMK2G 0 | CDK10 = 0 | CDK2 = 0 | CDK3 = 0 | CDK4 = 0 | CDK5 = 0 | CDK6 = 0

CN(C)C[C@@H]1CCn2cc(c3ccccc32)C2=C(C(=O)NC2=O)c2cn(c3ccccc23)CCO1 [Ruboxistaurin (hydrochloride)] (10 µM)
inactive: ABL1 = 0 | AKT1 = 0 | ALK 0 | ARAF 0 | AURKA 0 | AURKB 0 | AURKC 0 | BLK 0 | BMX 0 | BRAF 0 | BRAF_V600E 0 | CAMK2A 0 | CAMK2G 0 | CDK10 = 0 | CDK2 = 0 | CDK3 = 0 | CDK5 = 0 | CDK6 = 0

Cc1ccc(NC(=O)c2cccc(N(C)C)c2)cc1NC(=O)c1ccc(O)cc1 (10 µM)
inactive: ABL1 = 0 | AKT1 = 0 | ALK 0 | ARAF 0 | AURKA 0 | AURKB 0 | AURKC 0 | BLK 0 | BMX 0 | BRAF_V600E 0 | BTK 0 | CAMK2A 0 | CAMK2G 0 | CDK10 = 0 | CDK2 = 0 | CDK3 = 0 | CDK4 = 0 | CDK5 = 0 | CDK6 = 0

CC(C)(C#N)c1ccc(N2C(=O)OCc3cnc4ccc(-c5cnc6ccccc6c5)cc4c32)cc1 (2.5 µM)
inactive: ABL1 = 0 | AKT1 = 0 | ALK 0 | ARAF 0 | AURKA 0 | AURKB 0 | AURKC 0 | BLK 0 | BMX 0 | BRAF_V600E 0 | BTK 0 | CAMK2A 0 | CAMK2G 0 | CDK10 = 0 | CDK2 = 0 | CDK3 = 0 | CDK4 = 0 | CDK5 = 0 | CDK6 = 0

COCCOc1cc2nccc(Nc3n[nH]c(C)c3C)c2cc1S(=O)(=O)C(C)(C)C [RIP2 kinase inhibitor 2] (2.5 µM)
inactive: ABL1 = 0 | AKT1 = 0 | ALK 0 | ARAF 0 | AURKA 0 | AURKB 0 | AURKC 0 | BLK 0 | BMX 0 | BRAF 0 | BTK 0 | CAMK2A 0 | CAMK2G 0 | CDK10 = 0 | CDK2 = 0 | CDK3 = 0 | CDK4 = 0 | CDK5 = 0 | CDK6 = 0

COc1cc(C(=O)NC2CCN(C)CC2)ccc1Nc1ncc2c(n1)N(C1CCCC1)CC(F)(F)C(=O)N2C (10 µM)
inactive: ABL1 = 0 | AKT1 = 0 | ALK 0 | ARAF 0 | AURKA 0 | AURKB 0 | AURKC 0 | BLK 0 | BMX 0 | BRAF 0 | BTK 0 | CAMK2A 0 | CAMK2G 0 | CDK10 = 0 | CDK2 = 0 | CDK3 = 0 | CDK4 = 0 | CDK5 = 0 | CDK6 = 0

COc1cc(F)cc([C@@H](CO)NC(=O)[C@@H](C)N2Cc3ccc(-c4nc(NC5CCOCC5)ncc4Cl)cc3C2=O)c1 [ERK1/2 inhibitor 2] (10 µM)
inactive: ABL1 = 0 | AKT1 = 0 | ALK 0 | ARAF 0 | AURKA 0 | AURKB 0 | AURKC 0 | BLK 0 | BMX 0 | BRAF 0 | BTK 0 | CAMK2A 0 | CAMK2G 0 | CDK10 = 0 | CDK2 = 0 | CDK3 = 0 | CDK4 = 0 | CDK5 = 0 | CDK6 = 0

CC(C)(C)c1cc(NC(=O)Nc2ccc(-c3cn4c(n3)sc3cc(OCCN5CCOCC5)ccc34)cc2)no1 [Quizartinib] (10 µM)
inactive: ABL1 = 0 | AKT1 = 0 | ALK 0 | ARAF 0 | AURKA 0 | AURKB 0 | AURKC 0 | BLK 0 | BMX 0 | BRAF_V600E 0 | BTK 0 | CAMK2A 0 | CAMK2G 0 | CDK10 = 0 | CDK2 = 0 | CDK3 = 0 | CDK4 = 0 | CDK5 = 0 | CDK6 = 0

COc1cc(Oc2ccnc3cc(OC)c(OC)cc23)ccc1NC(=O)NC(C)c1nccs1 (stereo not given) (2.5 µM)
inactive: ABL1 = 0 | AKT1 = 0 | ALK 0 | ARAF 0 | AURKA 0 | AURKB 0 | AURKC 0 | BLK 0 | BMX 0 | BRAF_V600E 0 | BTK 0 | CAMK2A 0 | CAMK2G 0 | CDK10 = 0 | CDK2 = 0 | CDK3 = 0 | CDK4 = 0 | CDK5 = 0 | CDK6 = 0

CCCCNc1ncc(-c2ccc(CN3CCOCC3)cn2)c(NC2CCC(O)CC2)n1 (stereo not given) (10 µM)
inactive: ABL1 = 0 | AKT1 = 0 | ALK 0 | ARAF 0 | AURKA 0 | AURKB 0 | AURKC 0 | BLK 0 | BMX 0 | BRAF 0 | BTK 0 | CAMK2A 0 | CAMK2G 0 | CDK10 = 0 | CDK2 = 0 | CDK3 = 0 | CDK4 = 0 | CDK5 = 0 | CDK6 = 0

COc1cc2ncnc(Nc3ccc(O)cc3)c2cc1OC (10 µM)
inactive: ABL1 = 0 | AKT1 = 0 | ALK 0 | ARAF 0 | AURKA 0 | AURKB 0 | AURKC 0 | BLK 0 | BMX 0 | BRAF_V600E 0 | BTK 0 | CAMK2A 0 | CAMK2G 0 | CDK10 = 0 | CDK3 = 0 | CDK4 = 0 | CDK5 = 0 | CDK6 = 0

Cn1nc(C(C)(C)C)cc1NC(=O)Nc1ccc(Oc2ccncc2)cc1 (10 µM)
inactive: ABL1 = 0 | AKT1 = 0 | ALK 0 | ARAF 0 | AURKA 0 | AURKB 0 | AURKC 0 | BLK 0 | BMX 0 | BRAF_V600E 0 | BTK 0 | CAMK2A 0 | CAMK2G 0 | CDK10 = 0 | CDK2 = 0 | CDK3 = 0 | CDK4 = 0 | CDK5 = 0 | CDK6 = 0

COc1cc(CCc2cc(-c3nc4ccc(N5CCN(C)CC5)cc4[nH]3)n[nH]2)cc(OC)c1 (10 µM)
inactive: ABL1 = 0 | AKT1 = 0 | ALK 0 | ARAF 0 | AURKA 0 | AURKB 0 | AURKC 0 | BLK 0 | BMX 0 | BRAF 0 | BTK 0 | CAMK2A 0 | CAMK2G 0 | CDK10 = 0 | CDK2 = 0 | CDK3 = 0 | CDK4 = 0 | CDK5 = 0 | CDK6 = 0

CC(C)c1ccc2oc3nc(N)c(C(=O)O)cc3c(=O)c2c1 [Amlexanox] (10 µM)
inactive: ABL1 = 0 | AKT1 = 0 | ALK 0 | ARAF 0 | AURKA 0 | AURKB 0 | AURKC 0 | BLK 0 | BMX 0 | BRAF 0 | BTK 0 | CAMK2A 0 | CAMK2G 0 | CDK10 = 0 | CDK2 = 0 | CDK3 = 0 | CDK4 = 0 | CDK5 = 0 | CDK6 = 0

Cc1cc(CS(=O)(=O)c2ccccc2)cc(OCc2ccc(CN3CCC[C@@H]3CO)cc2)c1 [PF-543 (Citrate)] (10 µM)
inactive: ABL1 = 0 | AKT1 = 0 | ALK 0 | ARAF 0 | AURKA 0 | AURKB 0 | AURKC 0 | BLK 0 | BMX 0 | BRAF 0 | BTK 0 | CAMK2A 0 | CAMK2G 0 | CDK10 = 0 | CDK2 = 0 | CDK3 = 0 | CDK4 = 0 | CDK5 = 0 | CDK6 = 0

An excerpt from above in order of formula weight, falling.
Cn1nc(C(C)(C)C)cc1NC(=O)Nc1ccc(Oc2ccncc2)cc1 (10 µM)
inactive: ABL1 = 0 | AKT1 = 0 | ALK 0 | ARAF 0 | AURKA 0 | AURKB 0 | AURKC 0 | BLK 0 | BMX 0 | BRAF_V600E 0 | BTK 0 | CAMK2A 0 | CAMK2G 0 | CDK10 = 0 | CDK2 = 0 | CDK3 = 0 | CDK4 = 0 | CDK5 = 0 | CDK6 = 0

CC(C)c1ccc2oc3nc(N)c(C(=O)O)cc3c(=O)c2c1 [Amlexanox] (10 µM)
inactive: ABL1 = 0 | AKT1 = 0 | ALK 0 | ARAF 0 | AURKA 0 | AURKB 0 | AURKC 0 | BLK 0 | BMX 0 | BRAF 0 | BTK 0 | CAMK2A 0 | CAMK2G 0 | CDK10 = 0 | CDK2 = 0 | CDK3 = 0 | CDK4 = 0 | CDK5 = 0 | CDK6 = 0

COc1cc2ncnc(Nc3ccc(O)cc3)c2cc1OC (10 µM)
inactive: ABL1 = 0 | AKT1 = 0 | ALK 0 | ARAF 0 | AURKA 0 | AURKB 0 | AURKC 0 | BLK 0 | BMX 0 | BRAF_V600E 0 | BTK 0 | CAMK2A 0 | CAMK2G 0 | CDK10 = 0 | CDK3 = 0 | CDK4 = 0 | CDK5 = 0 | CDK6 = 0
